Among the data in PubChem BioAssay AID2685 (National Center for Advancing Translational Sciences (NCATS), 2010) are cell number change and AC50 values, retold here.

The other results are listed elsewhere or left out. Further columns of the screen follow, without active or inactive calls. Compounds called inactive in the main read-out are mostly missing here. The note in brackets gives the kind of curve behind each potency; many fits are weak.

This assay can be described thus: qHTS Assay for Lipid Storage Modulators in Drosophila S3 Cells.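 On cell number change: cells counted by Cell Tracker Red CMTPX staining in the red channel.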 Conditions: BODIPY lipid droplet fluorescence, 18-24 h; for cell number change: measured here: cell count max response, cells fed with added oleic acid. The method, boiled down:
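Drosophila S3 cells got compounds at several concentrations plus oleic acid (400 uM solution). Laser-scanning cytometry with 488 nm excitation read lipid droplets at 500-530 nm and cells at 575-640 nm. Percent activity was relative to 20 uM Triacsin C.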
(In general: Quantitative high-throughput screening tests each substance at several concentrations.)

Setting [1] is: measured here: cell number channel AC50, cells fed with added oleic acid.
The mark [2] stands for this setting: measured here: lipid fluorescence (Fed channel) AC50, cells fed with added oleic acid.

As to `CC(C)CN(C(=O)COC(=O)Cc1ccc(Cl)cc1)c1c(N)n(Cc2ccccc2)c(=O)[nH]c1=O`, the cell number change was -76.1%. For the same molecule, under setting [1], the AC50 is 16.4 µM [falling, partial curve].

For `CCOC(=O)c1cnc(SCc2nc(N)nc(Nc3ccc(OC)cc3)n2)nc1N`, the cell number change stood at 133%. Besides, the half-maximal activity concentration (AC50) under setting [1] was 1.64 µM [rising, full curve].

On to `O=C(NCCC1=CCCCC1)C(=O)NCc1ccccc1Cl`, for which the cell number change was -0.919%. The AC50 under setting [2] is 6.51 µM [falling, single point].

As for `COc1cc(OC)cc(C(=O)NCC(=O)NCCN2C(=O)S/C(=C\c3ccccc3Cl)C2=O)c1`, the cell number change came out at 22.5%. Under setting [2], the AC50 was 2.31 µM [rising, partial curve].

`CCC(C)(C(=O)NC1CCCC1)N(C(C)=O)c1ccc(C)cc1` (centres undefined): the cell number change was -30%. Also, the AC50 under setting [2] is 25.9 µM [falling, partial curve].

For the molecule `CCOc1ccc(S(=O)(=O)Nc2cccc(OC)c2)cc1`, the cell number change came to 72.2%. Further, the AC50 under setting [1] is 3.66 µM [rising, full curve].

`O=C(NCc1cccs1)c1nc2c(nnn2Cc2ccccc2Cl)c(=O)[nH]1`: the cell number change is -15.4%. Also, the AC50 under setting [2] is 8.2 µM [falling, partial curve].

`O=C(COC(=O)CCC(=O)Nc1nccs1)NCc1ccco1`: the cell number change is -30.9%. Further, under setting [1], the AC50 was 29.1 µM [falling, partial curve, poor fit].

Take `CN(CC(=O)NCc1ccc(F)cc1)S(=O)(=O)c1ccc2c(c1)n(C)c(=O)c(=O)n2C`: the cell number change is -7.31%. Also, the AC50 under setting [2] was 6.51 µM [falling, single point].

Regarding `Cc1ccoc1C(=O)NCc1occc1C(=O)O`, the cell number change was -6.04%. Under setting [1], the AC50 was 0.00517 µM [falling, full curve, poor fit]. For the same molecule, the AC50 under setting [2] was 0.82 µM [falling, full curve].

`O=C(Cc1ccc(Cl)cc1)NC(=S)Nc1ccccc1O`: the cell number change was -1.38%. Besides, the AC50 under setting [2] was 14.6 µM [rising, partial curve].

Regarding `Cc1cc(C)n2nc(C(=O)Nc3cccc(S(=O)(=O)N4CCOCC4)c3)nc2n1`, the cell number change was -32.1%. The AC50 under setting [1] is 23.1 µM [falling, partial curve, poor fit]. For the same molecule, the AC50 under setting [2] is 0.116 µM [falling, full curve, poor fit].

Turning to `COc1ccc(NC(=O)CSc2nnc(-c3cccc(O)c3)o2)cc1`, the cell number change was 3.04%. In addition, the AC50 under setting [2] is 6.51 µM [rising, single point].

With `O=S(=O)(c1ccccc1)N1CCCc2ccccc21`, the cell number change is 6.74%. Besides, the AC50 under setting [2] was 2.59 µM [rising, partial curve, poor fit].

`O=C(Nc1ccccc1)C1COc2ccccc2O1` (centres undefined): the cell number change was found to be 13.6%.

On to `COc1ccccc1C(=O)Nc1ccc(OCC(=O)N2CCCCC2)cc1`, for which the cell number change is -1.23%. Besides, the AC50 under setting [1] was 6.51 µM [falling, single point]. For the same molecule, under setting [2], the AC50 was 23.1 µM [falling, partial curve, poor fit].

Consider `Cn1c(N2CCCC2)nc2c1c(=O)n(Cc1ccc(Cl)cc1)c(=O)n2C`, for which the cell number change was -29.8%. The AC50 under setting [2] is 20.6 µM [falling, single point].

For the molecule `Cn1c(COc2ccc(Cl)cc2)nnc1SCC(=O)NC1CC1`, the cell number change was 27.5%. The AC50 under setting [2] is 0.092 µM [falling, partial curve, poor fit].

`COc1ccc(/C=c2/sc3n(c2=O)NC2(c4ccccc4)N(C)C(=O)N(C)C2(c2ccccc2)N=3)cc1` (centres undefined): the cell number change is -24.2%. Further, under setting [1], the AC50 is 0.0082 µM [falling, full curve, poor fit].

`N#Cc1c(OCC(=O)c2ccccc2)nc2c(c1-c1ccco1)CCc1ccccc1-2`: the concentration at half-maximal activity (AC50) under setting [2] was 7.31 µM [falling, partial curve].

With `COc1ccc(O)c(/C=N/NC(=O)c2c(C)nnn2-c2nonc2N)c1`, the cell number change worked out at 11.3%. For the same molecule, the half-maximal activity concentration (AC50) under setting [1] is 6.51 µM [rising, single point].

Take `CC(=O)N/C(=C\c1ccccc1)C(=O)OCc1ccc(F)cc1`: the cell number change is -9.19%. Under setting [2], the AC50 is 0.58 µM [rising, single point].

For `Cn1c(=O)[nH]c(=O)c2c1nc(N1CCCC1)n2CCSc1nc2ccccc2[nH]1`, the cell number change was found to be 22.8%. Besides, the AC50 under setting [1] was 4.11 µM [rising, single point]. Moreover, the AC50 under setting [2] was 1.46 µM [falling, full curve].

As for `CC(Oc1ccccc1)C(=O)N1CCN=C1SCc1ccccc1` (centres undefined), the cell number change is 14.8%.

On to `Cc1c(NC(=O)CSc2ccccn2)c(=O)n(-c2ccccc2)n1C`, for which the cell number change was -9.17%.

Regarding `O=[n+]1c2c(n([O-])c3ccccc31)CCCC2`, the cell number change is -97%. Moreover, the AC50 under setting [1] was 29.1 µM [falling, partial curve]. Besides, the AC50 under setting [2] was 20.6 µM [falling, partial curve].

As to `O=C(Nc1ccc(Br)cc1)c1cccc(S(=O)(=O)Nc2cnc3ccccc3c2)c1`, the cell number change is -16.9%. Further, the AC50 under setting [1] was 2.59 µM [rising, partial curve]. Moreover, under setting [2], the AC50 is 3.26 µM [rising, partial curve].

`COCCSc1nnc(NC(=O)Cc2ccc(OC)c(OC)c2)s1`: the cell number change is -6.33%. Under setting [2], the AC50 was 1.64 µM [falling, partial curve, poor fit].

`COc1ccc(NC(=O)CSc2nnc(-c3cccnc3)o2)c(OC)c1`: the AC50 under setting [2] is 0.103 µM [rising, full curve, poor fit].

`Cc1nn(CCC#N)c(NC(=O)c2ccc(Cl)cc2Cl)c1P(=O)(Nc1ccc([N+](=O)[O-])cc1)N1CCOCC1` (centres undefined): the cell number change was -1.87%. Further, under setting [1], the AC50 was 0.184 µM [falling, full curve, poor fit]. Besides, the AC50 under setting [2] is 20.6 µM [falling, partial curve].

On to `O=C(NC1(Cc2ccccc2)CCN(Cc2ccc(-c3ccccc3)cc2)C1=O)c1ccccc1` (centres undefined), for which the cell number change is -0.776%. Also, the AC50 under setting [2] was 0.116 µM [falling, single point].

As to `O=C(Nc1ccc(F)cc1F)c1cc2n(n1)C(C(F)(F)F)C1CCCCC1N2` (centres undefined), the cell number change came out at 2.07%.

For `CCCOC(=O)C1C2C=CC3(CN(c4ccc(Cl)c(F)c4)C(=O)C13)O2` (centres undefined), the cell number change is 55.7%. Moreover, under setting [1], the AC50 is 6.51 µM [rising, partial curve]. The AC50 under setting [2] was 6.51 µM [rising, single point].

Regarding `O=C(CCCc1c[nH]c2ccccc12)NCc1ccccc1F`, the cell number change stood at 11.8%. Further, the AC50 under setting [2] was 29.1 µM [falling, single point].

On to `COc1ccc(C2=NS(=O)(=O)N(C)C(C(=O)NCc3ccccn3)=C2)cc1OC`, for which the cell number change worked out at 2.88%. The AC50 under setting [2] was 2.06 µM [rising, partial curve].

As for `CC1CCN(C(=O)COC(=O)c2cc(=O)[nH]c3ccccc23)CC1`, the cell number change came to 5.14%. The AC50 under setting [1] is 0.082 µM [falling, full curve, poor fit].

As usually defined, the AC50 is the midpoint of the concentration-response curve, whichever way the signal moves. A lower AC50 goes with activity at low concentration.
